These are yes or no findings as the source states them, for the method shown. A result given as binding can be weak or reduced; the word gives no strength.
Target: HLA-C*07:01 (human)
Assay: HLA-I IP (W6/32) and targeted MS of monoallelic HMy2.C1R cells expressing the polyantigen cassette
Conditions: remark: other sources report otherwise

LTSTVQLIM […]
binding: binds
